Among the data in the supplement of paper PMC6411743 are NP40-soluble protein abundance values, retold here.

Chains of the proteins cited; added tags and fusions are not shown. Lines headed by an entry give the natural chain unless they say otherwise; changes in a name come on top.
UniProt P41252: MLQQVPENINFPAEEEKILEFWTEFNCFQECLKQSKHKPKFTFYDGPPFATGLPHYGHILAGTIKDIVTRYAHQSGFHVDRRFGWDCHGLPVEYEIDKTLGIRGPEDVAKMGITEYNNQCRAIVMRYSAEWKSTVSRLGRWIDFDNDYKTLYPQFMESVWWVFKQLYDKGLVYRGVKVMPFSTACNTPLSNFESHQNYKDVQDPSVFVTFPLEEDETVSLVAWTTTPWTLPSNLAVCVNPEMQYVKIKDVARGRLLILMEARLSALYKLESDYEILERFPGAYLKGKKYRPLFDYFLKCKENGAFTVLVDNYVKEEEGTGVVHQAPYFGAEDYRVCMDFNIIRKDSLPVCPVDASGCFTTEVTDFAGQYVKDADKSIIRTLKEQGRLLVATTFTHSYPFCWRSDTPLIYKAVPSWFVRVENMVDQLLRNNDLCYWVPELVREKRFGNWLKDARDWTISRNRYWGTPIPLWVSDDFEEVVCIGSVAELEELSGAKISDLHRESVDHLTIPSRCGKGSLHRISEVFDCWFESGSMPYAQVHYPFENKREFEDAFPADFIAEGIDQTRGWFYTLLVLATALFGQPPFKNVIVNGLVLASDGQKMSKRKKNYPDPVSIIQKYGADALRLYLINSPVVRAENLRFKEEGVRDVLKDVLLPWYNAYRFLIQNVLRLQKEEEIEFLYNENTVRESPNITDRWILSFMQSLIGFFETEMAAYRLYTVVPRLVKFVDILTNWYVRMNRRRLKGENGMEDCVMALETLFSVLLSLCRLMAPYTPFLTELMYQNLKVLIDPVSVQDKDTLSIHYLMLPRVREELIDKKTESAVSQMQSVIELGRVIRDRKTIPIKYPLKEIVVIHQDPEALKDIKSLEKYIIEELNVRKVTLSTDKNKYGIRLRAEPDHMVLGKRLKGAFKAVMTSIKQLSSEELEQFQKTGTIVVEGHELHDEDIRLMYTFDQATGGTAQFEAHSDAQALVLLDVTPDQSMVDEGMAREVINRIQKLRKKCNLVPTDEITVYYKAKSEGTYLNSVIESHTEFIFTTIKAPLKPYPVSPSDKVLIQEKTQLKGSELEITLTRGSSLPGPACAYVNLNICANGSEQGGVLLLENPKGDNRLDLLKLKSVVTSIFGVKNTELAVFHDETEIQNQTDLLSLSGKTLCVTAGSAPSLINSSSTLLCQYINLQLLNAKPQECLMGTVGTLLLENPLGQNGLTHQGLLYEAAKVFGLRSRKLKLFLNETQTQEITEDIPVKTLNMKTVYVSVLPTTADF
UniProt P49748: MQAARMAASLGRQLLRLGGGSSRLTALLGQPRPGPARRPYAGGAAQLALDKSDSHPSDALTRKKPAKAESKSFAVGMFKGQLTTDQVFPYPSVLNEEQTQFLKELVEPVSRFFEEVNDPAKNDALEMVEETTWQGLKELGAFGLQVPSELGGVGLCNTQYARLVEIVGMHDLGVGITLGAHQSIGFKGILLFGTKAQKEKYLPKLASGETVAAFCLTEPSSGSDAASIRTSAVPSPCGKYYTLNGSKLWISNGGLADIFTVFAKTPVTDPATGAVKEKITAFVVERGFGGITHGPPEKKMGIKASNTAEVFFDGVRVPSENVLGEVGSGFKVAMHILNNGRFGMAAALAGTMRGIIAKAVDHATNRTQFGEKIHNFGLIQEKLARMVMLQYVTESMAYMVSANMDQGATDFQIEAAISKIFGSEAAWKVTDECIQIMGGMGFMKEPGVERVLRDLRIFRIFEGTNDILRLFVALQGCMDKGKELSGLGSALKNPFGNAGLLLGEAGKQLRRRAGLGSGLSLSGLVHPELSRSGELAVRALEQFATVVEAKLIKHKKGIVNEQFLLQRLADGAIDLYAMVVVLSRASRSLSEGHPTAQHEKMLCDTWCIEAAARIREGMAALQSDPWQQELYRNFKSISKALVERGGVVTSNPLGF
UniProt P49903: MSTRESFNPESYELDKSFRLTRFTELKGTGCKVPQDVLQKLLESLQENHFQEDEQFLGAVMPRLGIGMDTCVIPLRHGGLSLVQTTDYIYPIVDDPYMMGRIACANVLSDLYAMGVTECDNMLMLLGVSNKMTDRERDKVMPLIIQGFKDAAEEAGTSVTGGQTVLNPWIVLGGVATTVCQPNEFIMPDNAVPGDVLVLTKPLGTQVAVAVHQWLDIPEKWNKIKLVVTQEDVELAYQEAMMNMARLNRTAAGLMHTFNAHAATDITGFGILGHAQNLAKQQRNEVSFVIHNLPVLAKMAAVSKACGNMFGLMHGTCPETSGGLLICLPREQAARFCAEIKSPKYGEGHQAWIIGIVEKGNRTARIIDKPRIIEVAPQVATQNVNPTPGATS
UniProt P49674: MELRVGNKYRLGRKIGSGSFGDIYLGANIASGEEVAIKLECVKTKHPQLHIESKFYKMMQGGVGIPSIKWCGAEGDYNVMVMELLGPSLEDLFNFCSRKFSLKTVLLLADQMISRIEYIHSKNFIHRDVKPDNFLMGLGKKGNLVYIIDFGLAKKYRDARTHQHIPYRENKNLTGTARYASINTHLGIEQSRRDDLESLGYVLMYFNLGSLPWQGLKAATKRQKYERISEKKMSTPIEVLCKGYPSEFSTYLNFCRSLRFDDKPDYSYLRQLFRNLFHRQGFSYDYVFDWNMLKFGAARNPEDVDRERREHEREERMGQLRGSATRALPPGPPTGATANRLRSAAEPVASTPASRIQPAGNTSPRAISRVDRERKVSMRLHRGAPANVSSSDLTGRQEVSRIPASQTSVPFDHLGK
UniProt P52594: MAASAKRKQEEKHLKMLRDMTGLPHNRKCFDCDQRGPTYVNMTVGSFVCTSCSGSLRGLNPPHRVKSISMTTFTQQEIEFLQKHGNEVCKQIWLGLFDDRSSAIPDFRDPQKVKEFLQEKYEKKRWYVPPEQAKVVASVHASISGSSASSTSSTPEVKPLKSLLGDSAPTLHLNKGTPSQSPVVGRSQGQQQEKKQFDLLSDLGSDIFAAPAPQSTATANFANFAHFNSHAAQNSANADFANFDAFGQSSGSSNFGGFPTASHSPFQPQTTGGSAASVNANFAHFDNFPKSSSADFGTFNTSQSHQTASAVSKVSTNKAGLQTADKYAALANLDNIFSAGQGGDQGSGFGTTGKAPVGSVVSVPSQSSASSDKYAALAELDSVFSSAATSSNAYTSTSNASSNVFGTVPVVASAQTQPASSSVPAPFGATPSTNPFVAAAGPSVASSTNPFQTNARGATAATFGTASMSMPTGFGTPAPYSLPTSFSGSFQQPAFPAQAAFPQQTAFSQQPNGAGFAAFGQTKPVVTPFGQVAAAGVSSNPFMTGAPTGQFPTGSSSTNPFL
UniProt P48634: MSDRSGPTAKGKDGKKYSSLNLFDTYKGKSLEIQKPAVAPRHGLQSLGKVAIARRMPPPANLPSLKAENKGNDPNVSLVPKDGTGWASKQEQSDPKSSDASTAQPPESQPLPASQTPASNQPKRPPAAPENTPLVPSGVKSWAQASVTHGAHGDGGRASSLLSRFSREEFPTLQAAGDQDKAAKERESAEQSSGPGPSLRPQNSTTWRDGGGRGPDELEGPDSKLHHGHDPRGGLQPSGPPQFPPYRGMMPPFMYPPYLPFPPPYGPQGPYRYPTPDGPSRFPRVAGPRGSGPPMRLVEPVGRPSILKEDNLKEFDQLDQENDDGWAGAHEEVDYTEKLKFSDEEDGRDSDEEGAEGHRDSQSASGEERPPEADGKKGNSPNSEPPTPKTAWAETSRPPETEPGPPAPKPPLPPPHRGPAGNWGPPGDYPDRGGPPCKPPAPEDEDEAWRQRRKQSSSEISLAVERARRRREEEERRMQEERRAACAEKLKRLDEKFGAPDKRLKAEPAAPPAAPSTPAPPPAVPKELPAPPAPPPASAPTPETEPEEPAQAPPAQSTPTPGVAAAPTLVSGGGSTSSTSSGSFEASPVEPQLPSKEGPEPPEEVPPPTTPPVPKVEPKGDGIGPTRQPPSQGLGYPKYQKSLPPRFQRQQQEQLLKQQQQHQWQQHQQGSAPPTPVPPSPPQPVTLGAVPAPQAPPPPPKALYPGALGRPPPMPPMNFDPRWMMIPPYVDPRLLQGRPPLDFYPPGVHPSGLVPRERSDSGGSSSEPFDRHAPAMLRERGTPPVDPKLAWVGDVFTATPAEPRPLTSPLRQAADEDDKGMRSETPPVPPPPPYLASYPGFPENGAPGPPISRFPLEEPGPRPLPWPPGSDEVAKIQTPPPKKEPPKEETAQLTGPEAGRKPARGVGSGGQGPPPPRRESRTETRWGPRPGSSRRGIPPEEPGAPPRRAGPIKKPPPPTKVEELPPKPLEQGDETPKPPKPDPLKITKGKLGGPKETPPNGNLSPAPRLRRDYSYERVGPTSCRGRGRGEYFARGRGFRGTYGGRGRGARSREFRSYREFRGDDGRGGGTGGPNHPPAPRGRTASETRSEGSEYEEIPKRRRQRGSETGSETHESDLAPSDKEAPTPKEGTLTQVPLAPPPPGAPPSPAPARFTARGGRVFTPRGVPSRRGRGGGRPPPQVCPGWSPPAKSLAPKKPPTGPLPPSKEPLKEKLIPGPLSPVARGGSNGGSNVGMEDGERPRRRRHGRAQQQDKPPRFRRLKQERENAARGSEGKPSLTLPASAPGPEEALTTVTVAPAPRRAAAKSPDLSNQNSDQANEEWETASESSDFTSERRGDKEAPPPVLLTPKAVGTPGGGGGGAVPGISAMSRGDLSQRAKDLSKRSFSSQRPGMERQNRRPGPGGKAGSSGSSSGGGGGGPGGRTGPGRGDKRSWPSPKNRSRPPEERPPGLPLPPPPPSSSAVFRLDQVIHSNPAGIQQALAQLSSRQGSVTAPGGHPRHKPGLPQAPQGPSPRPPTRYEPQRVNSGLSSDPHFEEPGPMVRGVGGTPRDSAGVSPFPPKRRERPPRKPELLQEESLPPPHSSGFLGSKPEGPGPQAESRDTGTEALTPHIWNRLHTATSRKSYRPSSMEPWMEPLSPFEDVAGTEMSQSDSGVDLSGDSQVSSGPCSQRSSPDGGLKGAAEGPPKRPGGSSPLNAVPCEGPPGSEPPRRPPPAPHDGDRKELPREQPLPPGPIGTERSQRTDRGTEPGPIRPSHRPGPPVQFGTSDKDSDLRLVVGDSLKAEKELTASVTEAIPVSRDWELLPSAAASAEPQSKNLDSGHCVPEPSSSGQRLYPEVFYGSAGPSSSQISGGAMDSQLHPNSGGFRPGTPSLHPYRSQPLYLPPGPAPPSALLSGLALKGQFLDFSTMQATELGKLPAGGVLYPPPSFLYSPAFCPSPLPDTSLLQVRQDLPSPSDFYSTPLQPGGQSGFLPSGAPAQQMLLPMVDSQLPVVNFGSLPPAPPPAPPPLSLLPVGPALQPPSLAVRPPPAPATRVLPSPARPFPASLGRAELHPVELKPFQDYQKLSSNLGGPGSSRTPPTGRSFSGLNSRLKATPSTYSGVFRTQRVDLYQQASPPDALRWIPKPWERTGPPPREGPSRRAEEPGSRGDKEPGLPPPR
UniProt P50402: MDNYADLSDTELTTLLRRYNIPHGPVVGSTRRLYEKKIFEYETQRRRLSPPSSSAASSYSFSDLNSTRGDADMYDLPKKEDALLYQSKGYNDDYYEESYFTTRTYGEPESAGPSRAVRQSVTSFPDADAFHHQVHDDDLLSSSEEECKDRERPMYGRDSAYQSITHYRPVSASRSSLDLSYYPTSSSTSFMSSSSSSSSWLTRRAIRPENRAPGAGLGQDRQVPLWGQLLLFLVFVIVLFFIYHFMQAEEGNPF
UniProt P51452: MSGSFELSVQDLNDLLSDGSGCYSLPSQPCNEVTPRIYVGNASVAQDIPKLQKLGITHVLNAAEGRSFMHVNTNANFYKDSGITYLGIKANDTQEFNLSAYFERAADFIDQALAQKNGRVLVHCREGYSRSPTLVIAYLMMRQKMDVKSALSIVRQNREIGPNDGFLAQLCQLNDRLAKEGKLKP
UniProt P50990: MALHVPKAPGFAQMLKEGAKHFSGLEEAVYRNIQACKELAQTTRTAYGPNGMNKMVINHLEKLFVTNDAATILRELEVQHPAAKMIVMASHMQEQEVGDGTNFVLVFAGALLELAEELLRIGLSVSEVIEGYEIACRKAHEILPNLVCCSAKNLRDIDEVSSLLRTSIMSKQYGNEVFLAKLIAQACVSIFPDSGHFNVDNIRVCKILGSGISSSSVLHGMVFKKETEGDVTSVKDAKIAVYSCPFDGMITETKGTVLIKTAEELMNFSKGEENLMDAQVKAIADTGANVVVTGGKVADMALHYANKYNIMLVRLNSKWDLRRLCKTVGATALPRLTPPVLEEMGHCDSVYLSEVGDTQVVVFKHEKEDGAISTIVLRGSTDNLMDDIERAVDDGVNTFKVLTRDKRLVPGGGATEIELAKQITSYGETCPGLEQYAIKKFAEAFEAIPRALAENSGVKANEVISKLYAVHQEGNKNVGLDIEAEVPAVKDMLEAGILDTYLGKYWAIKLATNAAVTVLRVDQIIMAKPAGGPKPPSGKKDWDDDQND

± gives the standard deviation of the averaged measurements. This is a selection; strong and weak results do not stand in their true shares. Most entries show no effect beyond the scatter of the controls.

Compound in the test: Nc1ncnc2c1ncn2[C@@H]1O[C@H](COP(=O)(O)OP(=O)(O)OP(=O)(O)O)[C@@H](O)[C@H]1O [adenosine triphosphate]
Kind of test: NP40-soluble protein abundance relative to vehicle (solubility fold change) (ratio); higher = more soluble protein in presence of ATP. In a few lines:
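Each value is a fold change relative to the detergent-processed vehicle, calculated per replicate from vsn-normalised intensities. Jurkat crude lysate received eight concentrations (0.1 to 10 mM) for 10 min at room temperature and 3 min at 37 °C, then was solubilised in 0.8% NP40 with benzonase (60 min, 4 °C). The ultracentrifuged supernatant was TMT-labelled and run by LC-MS/MS in three independent experiments.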

Take IARS (UniProt P41252): the NP40-soluble protein abundance runs as follows: (concentration: 0.1mM) 1.04 ± 0.063; (concentration: 0.5mM) 1.04 ± 0.024; (concentration: 1mM) 1.1 ± 0.14; (concentration: 2mM) 1 ± 0.072; (concentration: 4mM) 0.974 ± 0.058; (concentration: 6mM) 0.905 ± 0.059. Also, the NP40-soluble protein abundance (concentration: 8mM) was determined as 1.05 ± 0.035 and the NP40-soluble protein abundance (concentration: 10mM) stood at 0.975 ± 0.078.

As to UniProt P49761 and related entries, the NP40-soluble protein abundance came out at 1.13 ± 0.08 (concentration: 0.1mM); 1.25 ± 0.014 (concentration: 0.5mM); 1.317 ± 0.008 (concentration: 1mM); 1.56 ± 0.035 (concentration: 2mM); 1.54 ± 0.018 (concentration: 4mM); 1.43 ± 0.13 (concentration: 6mM). Further, the NP40-soluble protein abundance reads like this: (concentration: 8mM) 1.81 ± 0.23; (concentration: 10mM) 2.065 ± 0.019.

Regarding UniProt P49748 and related entries, the NP40-soluble protein abundance reads like this: (concentration: 0.1mM) 1.03 ± 0.046; (concentration: 0.5mM) 1.016 ± 0.0095; (concentration: 1mM) 0.997 ± 0.081; (concentration: 2mM) 0.989 ± 0.064; (concentration: 4mM) 0.983 ± 0.027; (concentration: 6mM) 0.934 ± 0.083. For the same target, the NP40-soluble protein abundance by setting is: (concentration: 8mM) 0.986 ± 0.015; (concentration: 10mM) 0.973 ± 0.045.

Take UniProt P38398 and related entries: the NP40-soluble protein abundance (concentration: 0.1mM) is 1.02 ± 0.02; the NP40-soluble protein abundance (concentration: 0.5mM) was 1.02 ± 0.035; the NP40-soluble protein abundance (concentration: 1mM) came to 1.02 ± 0.011; the NP40-soluble protein abundance (concentration: 2mM) was 1.05 ± 0.071; the NP40-soluble protein abundance (concentration: 4mM) is 1.03 ± 0.035; the NP40-soluble protein abundance (concentration: 6mM) was 1.03 ± 0.086. Moreover, the NP40-soluble protein abundance (concentration: 8mM) worked out at 1.02 ± 0.081 and the NP40-soluble protein abundance (concentration: 10mM) worked out at 1.06 ± 0.03.

For UniProt P51114 and related entries, the NP40-soluble protein abundance (concentration: 0.1mM) came out at 1.15 ± 0.046; the NP40-soluble protein abundance (concentration: 0.5mM) was found to be 1.464 ± 0.013; the NP40-soluble protein abundance (concentration: 1mM) was determined as 1.644 ± 0.0088; the NP40-soluble protein abundance (concentration: 2mM) was 1.79 ± 0.041; the NP40-soluble protein abundance (concentration: 4mM) was determined as 2.03 ± 0.048; the NP40-soluble protein abundance (concentration: 6mM) is 2.17 ± 0.11. Further, the NP40-soluble protein abundance (concentration: 8mM) was found to be 2.32 ± 0.039 and the NP40-soluble protein abundance (concentration: 10mM) amounted to 2.4 ± 0.045.

As to RPS19 (UniProt P39019), the NP40-soluble protein abundance amounted to 0.828 ± 0.19 (concentration: 0.1mM) and 0.795 ± 0.18 (concentration: 0.5mM).

Turning to FXR2 (UniProt P51116), the NP40-soluble protein abundance (concentration: 0.1mM) came to 1.14 ± 0.15; the NP40-soluble protein abundance (concentration: 0.5mM) is 1.43 ± 0.027; the NP40-soluble protein abundance (concentration: 1mM) was found to be 1.68 ± 0.23; the NP40-soluble protein abundance (concentration: 2mM) amounted to 1.77 ± 0.15; the NP40-soluble protein abundance (concentration: 4mM) came to 2.06 ± 0.29; the NP40-soluble protein abundance (concentration: 6mM) was found to be 2.24 ± 0.27. For the same target, the NP40-soluble protein abundance worked out at 2.26 ± 0.3 (concentration: 8mM) and 2.33 ± 0.26 (concentration: 10mM).

On to UniProt P49354 and related entries, for which the NP40-soluble protein abundance reads like this: (concentration: 0.1mM) 1.07 ± 0.043; (concentration: 0.5mM) 1.04 ± 0.044; (concentration: 1mM) 1.05 ± 0.088; (concentration: 2mM) 1.01 ± 0.059; (concentration: 4mM) 1.03 ± 0.053; (concentration: 6mM) 0.955 ± 0.12. In addition, the NP40-soluble protein abundance was 1.04 ± 0.076 (concentration: 8mM) and 0.996 ± 0.062 (concentration: 10mM).

With PRIM2 (UniProt P49643), the NP40-soluble protein abundance by setting is: (concentration: 0.1mM) 1.03 ± 0.023; (concentration: 0.5mM) 1.04 ± 0.033; (concentration: 1mM) 1.03 ± 0.057; (concentration: 2mM) 1.02 ± 0.025; (concentration: 4mM) 1.02 ± 0.032; (concentration: 6mM) 1 ± 0.034. Moreover, the NP40-soluble protein abundance turned out to be 1.02 ± 0.028 (concentration: 8mM) and 1.03 ± 0.047 (concentration: 10mM).

Regarding UniProt P49903 and related entries, the NP40-soluble protein abundance came out at 1.03 ± 0.038 (concentration: 0.1mM); 1.04 ± 0.082 (concentration: 0.5mM); 1 ± 0.039 (concentration: 1mM); 0.992 ± 0.02 (concentration: 2mM); 0.962 ± 0.049 (concentration: 4mM); 0.979 ± 0.068 (concentration: 6mM). For the same target, the NP40-soluble protein abundance is, setting by setting: (concentration: 8mM) 0.966 ± 0.052; (concentration: 10mM) 0.96 ± 0.042.

For the target CTCF (UniProt P49711), the NP40-soluble protein abundance runs as follows: (concentration: 0.1mM) 1.05 ± 0.04; (concentration: 0.5mM) 1.04 ± 0.032; (concentration: 1mM) 1.02 ± 0.027; (concentration: 2mM) 0.993 ± 0.036; (concentration: 4mM) 0.972 ± 0.034; (concentration: 6mM) 0.895 ± 0.046. Further, the NP40-soluble protein abundance came out at 0.927 ± 0.032 (concentration: 8mM) and 0.894 ± 0.027 (concentration: 10mM).

Turning to UniProt P49674, the NP40-soluble protein abundance (concentration: 0.1mM) came to 1 ± 0.029 and the NP40-soluble protein abundance (concentration: 0.5mM) worked out at 0.995 ± 0.079.

On to VAMP7 (UniProt P51809), for which the NP40-soluble protein abundance stood at 0.998 ± 0.058 (concentration: 0.1mM); 1 ± 0.041 (concentration: 0.5mM); 0.955 ± 0.046 (concentration: 1mM); 0.958 ± 0.05 (concentration: 2mM); 0.938 ± 0.028 (concentration: 4mM); 0.894 ± 0.1 (concentration: 6mM). In addition, the NP40-soluble protein abundance (concentration: 8mM) turned out to be 0.943 ± 0.044 and the NP40-soluble protein abundance (concentration: 10mM) came out at 0.945 ± 0.044.

As to UniProt P51812, the NP40-soluble protein abundance reads like this: (concentration: 0.1mM) 1.11 ± 0.11; (concentration: 0.5mM) 1.06 ± 0.062.

As for UniProt P52594 and related entries, the NP40-soluble protein abundance turned out to be 0.975 ± 0.015 (concentration: 0.1mM); 0.975 ± 0.027 (concentration: 0.5mM); 0.945 ± 0.033 (concentration: 1mM); 0.961 ± 0.012 (concentration: 2mM); 0.963 ± 0.019 (concentration: 4mM); 0.987 ± 0.037 (concentration: 6mM). Besides, the NP40-soluble protein abundance reads like this: (concentration: 8mM) 0.93 ± 0.052; (concentration: 10mM) 0.918 ± 0.033.

As for UniProt P50750-2|P50750, the NP40-soluble protein abundance runs as follows: (concentration: 0.1mM) 1.05 ± 0.053; (concentration: 0.5mM) 1.14 ± 0.06; (concentration: 1mM) 1.18 ± 0.047; (concentration: 2mM) 1.26 ± 0.047; (concentration: 4mM) 1.38 ± 0.018; (concentration: 6mM) 1.47 ± 0.13. Also, the NP40-soluble protein abundance is, setting by setting: (concentration: 8mM) 1.64 ± 0.058; (concentration: 10mM) 1.7 ± 0.1.

Take NSF (UniProt P46459): the NP40-soluble protein abundance (concentration: 0.1mM) worked out at 1.03 ± 0.049 and the NP40-soluble protein abundance (concentration: 0.5mM) was 1.04 ± 0.055.

Turning to UniProt P48634 and related entries, the NP40-soluble protein abundance is, setting by setting: (concentration: 0.1mM) 0.987 ± 0.038; (concentration: 0.5mM) 1.06 ± 0.048.

In the case of IGHMBP2 (UniProt P38935), the NP40-soluble protein abundance was determined as 1.12 ± 0.062 (concentration: 0.1mM); 1.31 ± 0.058 (concentration: 0.5mM); 1.41 ± 0.11 (concentration: 1mM); 1.59 ± 0.088 (concentration: 2mM); 1.84 ± 0.09 (concentration: 4mM); 2.01 ± 0.13 (concentration: 6mM). For the same target, the NP40-soluble protein abundance runs as follows: (concentration: 8mM) 2.19 ± 0.2; (concentration: 10mM) 2.4 ± 0.14.

As to TPMT (UniProt P51580), the NP40-soluble protein abundance is 1.03 ± 0.092 (concentration: 0.1mM); 1.03 ± 0.061 (concentration: 0.5mM); 1 ± 0.084 (concentration: 1mM); 1 ± 0.077 (concentration: 2mM); 0.985 ± 0.064 (concentration: 4mM); 0.954 ± 0.12 (concentration: 6mM). Further, the NP40-soluble protein abundance reads like this: (concentration: 8mM) 0.992 ± 0.057; (concentration: 10mM) 0.979 ± 0.044.

On to EMD (UniProt P50402), for which the NP40-soluble protein abundance turned out to be 0.971 ± 0.058 (concentration: 0.1mM); 1.13 ± 0.072 (concentration: 0.5mM); 1.13 ± 0.096 (concentration: 1mM); 1.16 ± 0.1 (concentration: 2mM); 1.14 ± 0.11 (concentration: 4mM); 1.11 ± 0.1 (concentration: 6mM). The NP40-soluble protein abundance runs as follows: (concentration: 8mM) 1.12 ± 0.086; (concentration: 10mM) 1.15 ± 0.05.

As to DUSP3 (UniProt P51452), the NP40-soluble protein abundance runs as follows: (concentration: 0.1mM) 0.971 ± 0.055; (concentration: 0.5mM) 0.941 ± 0.079.

As for CCT8 (UniProt P50990), the NP40-soluble protein abundance (concentration: 0.1mM) amounted to 0.97 ± 0.046; the NP40-soluble protein abundance (concentration: 0.5mM) stood at 0.997 ± 0.075; the NP40-soluble protein abundance (concentration: 1mM) worked out at 0.976 ± 0.029; the NP40-soluble protein abundance (concentration: 2mM) came out at 0.909 ± 0.033; the NP40-soluble protein abundance (concentration: 4mM) turned out to be 0.823 ± 0.036; the NP40-soluble protein abundance (concentration: 6mM) worked out at 0.86 ± 0.12. The NP40-soluble protein abundance by setting is: (concentration: 8mM) 0.842 ± 0.081; (concentration: 10mM) 0.835 ± 0.063.
